Taken from: PubChem BioAssay AID1259308 (NCATS, 2017)
Shown is one part, drawn at random, of about 59,000 reagents tested. About 1,510 of all reagents (2.6%) count as active. 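Calls use total luciferase alone and ignore viability, so some active siRNAs may act by altering cell number.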 The numbers tell different reagents against one gene apart.

Screen: 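Candidate targets for better recombinant protein yield in mammalian cells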 (primary screen)
Cells: human HEK293 embryonic kidney cells stably expressing firefly luciferase (HEK-CMV-Luc2-Hygro)
Reagent: single siRNA against human genes, 0.8 pmol siRNA per well
Timing: 72 h
Detection: 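Reporter luminescence and viable-cell signal on separate replicate plates, given as percent of non-targeting control and median/MAD z-scores, plus per-cell luciferase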
Direction: total luciferase, z-score and total luciferase, % of control: higher = more reporter protein produced; luciferase per cell, z-score: higher = more reporter output per viable cell; viable cells, % of control: higher = more viable cells
Hit rule: 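An siRNA counts as active if its total luciferase robust z-score exceeds 3; genes with two or more such siRNAs out of three were retested with fresh siRNAs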
Calls: active = raised luciferase; inactive = no rise

gene | reagent | total luciferase, z-score | total luciferase, % of control | luciferase per cell, z-score | viable cells, % of control | Call
ZNF93 (zinc finger protein 93) | 1 | -0.309 | 75.7 | -0.273 | 90.9 | inactive
ZNF93 (zinc finger protein 93) | 2 | 0.736 | 96.5 | 1.24 | 77.7 | inactive
ZNF93 (zinc finger protein 93) | 3 | 0.887 | 99.5 | 1.15 | 82.3 | inactive
DRC9 (dynein regulatory complex subunit 9) | 1 | -0.735 | 67.3 | -0.01 | 75.4 | inactive
DRC9 (dynein regulatory complex subunit 9) | 2 | -0.153 | 78.9 | -0.639 | 104 | inactive
DRC9 (dynein regulatory complex subunit 9) | 3 | 0.394 | 89.7 | 0.0631 | 98.6 | inactive
SEL1L (SEL1L adaptor subunit of SYVN1 ubiquitin ligase) | 1 | -1.8 | 46.1 | -2.37 | 96.1 | inactive
SEL1L (SEL1L adaptor subunit of SYVN1 ubiquitin ligase) | 2 | -0.97 | 62.6 | -1.31 | 98.9 | inactive
SEL1L (SEL1L adaptor subunit of SYVN1 ubiquitin ligase) | 3 | -0.603 | 69.9 | -0.891 | 98.8 | inactive
FAM169BP (family with sequence similarity 169 member B, pseudogene) | 1 | 0.955 | 101 | 2.14 | 64.1 | inactive
FAM169BP (family with sequence similarity 169 member B, pseudogene) | 2 | 0.503 | 91.9 | 0.24 | 96.4 | inactive
FAM169BP (family with sequence similarity 169 member B, pseudogene) | 3 | 1.63 | 114 | 2.56 | 65.2 | inactive
PM20D2 (peptidase M20 domain containing 2) | 1 | -0.563 | 70.7 | -0.455 | 89 | inactive
PM20D2 (peptidase M20 domain containing 2) | 2 | 0.662 | 95 | 0.0509 | 105 | inactive
PM20D2 (peptidase M20 domain containing 2) | 3 | -0.189 | 78.1 | -0.823 | 108 | inactive
DPEP2 (dipeptidase 2) | 1 | 0.15 | 84.9 | -0.801 | 117 | inactive
DPEP2 (dipeptidase 2) | 2 | -2.56 | 31 | -2.86 | 73.7 | inactive
DPEP2 (dipeptidase 2) | 3 | -1.06 | 60.8 | -0.356 | 74.6 | inactive
ZC3H12A (zinc finger CCCH-type containing 12A) | 1 | 1.34 | 108 | 0.956 | 94.3 | inactive
ZC3H12A (zinc finger CCCH-type containing 12A) | 2 | -1.43 | 53.4 | -1.29 | 83.8 | inactive
ZC3H12A (zinc finger CCCH-type containing 12A) | 3 | 0.0943 | 83.8 | -0.329 | 102 | inactive
ZNF536 (zinc finger protein 536) | 1 | 0.1 | 83.9 | 0.328 | 86 | inactive
ZNF536 (zinc finger protein 536) | 2 | 0.623 | 94.3 | 0.122 | 102 | inactive
ZNF536 (zinc finger protein 536) | 3 | 0.404 | 89.9 | 1.22 | 72.9 | inactive
GALNT13 (polypeptide N-acetylgalactosaminyltransferase 13) | 1 | -0.254 | 76.8 | -0.272 | 92.2 | inactive
GALNT13 (polypeptide N-acetylgalactosaminyltransferase 13) | 2 | 1 | 102 | 0.547 | 98.5 | inactive
GALNT13 (polypeptide N-acetylgalactosaminyltransferase 13) | 3 | -0.0263 | 81.4 | -0.289 | 98.1 | inactive
OR51L1 (olfactory receptor family 51 subfamily L member 1) | 1 | -1.14 | 59.3 | -1.1 | 88.4 | inactive
OR51L1 (olfactory receptor family 51 subfamily L member 1) | 2 | 2.01 | 122 | 2.16 | 77.2 | inactive
OR51L1 (olfactory receptor family 51 subfamily L member 1) | 3 | 1.09 | 104 | 0.983 | 89.4 | inactive
RPS10 (ribosomal protein S10) | 1 | -2.38 | 34.5 | -1.37 | 55.3 | inactive
RPS10 (ribosomal protein S10) | 2 | -1.97 | 42.7 | -0.63 | 56.3 | inactive
RPS10 (ribosomal protein S10) | 3 | -2.7 | 28.3 | -2.79 | 65.9 | inactive
OR8J3 (olfactory receptor family 8 subfamily J member 3) | 1 | 0.522 | 92.3 | 0.339 | 94.3 | inactive
OR8J3 (olfactory receptor family 8 subfamily J member 3) | 2 | -1.25 | 57 | -1.3 | 89.6 | inactive
OR8J3 (olfactory receptor family 8 subfamily J member 3) | 3 | 1.17 | 105 | 0.674 | 98.4 | inactive
ADM2 (adrenomedullin 2) | 1 | 0.15 | 84.9 | -0.0158 | 95.2 | inactive
ADM2 (adrenomedullin 2) | 2 | -0.128 | 79.3 | 0.137 | 85.5 | inactive
ADM2 (adrenomedullin 2) | 3 | -0.788 | 66.2 | -0.708 | 89.2 | inactive
CLCA1 (chloride channel accessory 1) | 1 | -0.481 | 72.3 | -0.323 | 88 | inactive
CLCA1 (chloride channel accessory 1) | 2 | -1.65 | 49 | -1.17 | 74.6 | inactive
CLCA1 (chloride channel accessory 1) | 3 | 0.0467 | 82.8 | -0.707 | 111 | inactive
DDRGK1 (DDRGK domain containing 1) | 1 | -0.273 | 76.4 | -0.604 | 100 | inactive
DDRGK1 (DDRGK domain containing 1) | 2 | 0.209 | 86 | 0.28 | 89.3 | inactive
DDRGK1 (DDRGK domain containing 1) | 3 | -0.981 | 62.4 | -0.824 | 86.6 | inactive
APEX2 (apurinic/apyrimidinic endodeoxyribonuclease 2) | 1 | 2.76 | 137 | 2.52 | 78.8 | inactive
APEX2 (apurinic/apyrimidinic endodeoxyribonuclease 2) | 2 | -1.08 | 60.5 | 0.386 | 61 | inactive
APEX2 (apurinic/apyrimidinic endodeoxyribonuclease 2) | 3 | -0.885 | 64.3 | -0.98 | 93 | inactive
VSIG8 (V-set and immunoglobulin domain containing 8) | 1 | 2.95 | 141 | 1.23 | 114 | inactive
VSIG8 (V-set and immunoglobulin domain containing 8) | 2 | -0.504 | 71.9 | -0.634 | 94.9 | inactive
VSIG8 (V-set and immunoglobulin domain containing 8) | 3 | 3.87 | 159 | 3.24 | 75.6 | active
NKAIN4 (sodium/potassium transporting ATPase interacting 4) | 1 | -0.212 | 77.7 | -0.277 | 93.4 | inactive
NKAIN4 (sodium/potassium transporting ATPase interacting 4) | 2 | -0.0473 | 80.9 | -0.241 | 96.4 | inactive
NKAIN4 (sodium/potassium transporting ATPase interacting 4) | 3 | 0.209 | 86 | -0.517 | 110 | inactive
IQSEC2 (IQ motif and Sec7 domain ArfGEF 2) | 1 | 0.621 | 94.2 | -0.452 | 119 | inactive
IQSEC2 (IQ motif and Sec7 domain ArfGEF 2) | 2 | 0.649 | 94.8 | 0.195 | 101 | inactive
IQSEC2 (IQ motif and Sec7 domain ArfGEF 2) | 3 | -1.76 | 46.9 | -1.54 | 78.6 | inactive
